Percent effect of library compounds

Measurements from “University of Dundee, Small-Polar-MMV Screening Library” (2021), ChEMBL document CHEMBL3988442.

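Whole-cell growth test on Mycobacterium tuberculosis, read after 3 days in glucose-containing 7H9 medium; the read-out is not stated. Compounds at 500 µM. Higher reads as more growth inhibition (inferred: compounds with an IC50 in retests scored well above the rest). Size under these conditions: about 18,000 compounds, about 1,400 of them at 50% or above in at least one test.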

Results are given as percent effect. How 0% and 100% were set is not recorded. Most values in the screen are low, and negative values occur. The compounds are a random part of those screened.

compound	effect
Cn1cc(Br)cc1C(=O)NCCC(O)C(F)(F)F (stereo not shown)	2.414%
Cc1ccsc1CN1CC(O)(CC#N)C1	-3.01%
CCNCc1nc(-c2ccccc2)no1	60.38%
CCCn1cnnc1C(C)NC(=O)c1cnc(O)cn1 (stereo not shown)	-12.68%
CC(C)N(C)S(=O)(=O)N1CCc2sccc2C1C (stereo not shown)	83.66%
CC(C)(CCS(C)(=O)=O)NC1CCCCC1	-9.26%
CC(C)N1CCC(NC(=O)c2ccoc2)CC1	18.1%
CC(NC(N)=O)C(=O)NCCc1ccc(Cl)cc1 (stereo not shown)	13.99%
CCC(NC(=O)c1ccc(NC)nc1)C1CCOCC1 (stereo not shown)	-6.795%
Cn1nnnc1SCCC(=O)Nc1ccc(F)cc1	1.469%
CN(C)C1(CNC(=O)c2ccccn2)CCCC1	49.17%
CNC1CCN(S(C)(=O)=O)C1 (stereo not shown)	-2.178%
FCC1CNCCCO1 (stereo not shown)	-2.581%
O=C1CC(C(=O)N2CCOC3(CCCC3)C2)CCN1 (stereo not shown)	-8.092%
COc1ccccc1CCNC(=O)CC1CCNC1 (stereo not shown)	47.04%
NCCCn1cc(CO)nn1	8.698%
NCc1cccc2c1OCCCO2	22.45%
CN1CC(C(=O)N2CCC(c3ncc[nH]3)CC2)NC1=O (stereo not shown)	3.952%
O=C(Nc1cccnc1)c1ccc(F)c(F)c1	31.59%
OC1COC2(CCN(Cc3cc(F)cc(F)c3)CC2)C1 (stereo not shown)	8.6%
CCc1nccn1CCCNC(=O)CSC	4.552%
CC(=O)c1ccc(C(=O)NCCN2CCOCC2)s1	0.7611%
Cc1nc(CCN)c(C)o1	7.894%
CN1CCN(Cc2cccc3c2OCO3)CC1	17.79%
Cc1cc(C)cc(C(=O)N2CCCC(O)C2)c1 (stereo not shown)	23.27%
COCC(O)CN(C)Cc1cccc(NC(C)=O)c1 (stereo not shown)	19.26%
CN(C)C(=O)c1c[nH]nc1C1CCCNC1 (stereo not shown)	-3.4%
Nc1ccc(CN2CCNC(=O)C2)cn1	-8.93%
CC(=O)c1ccc(N2C[C@@H](CN(C)C)[C@@H](CO)C2)nc1	8.826%
CCN(CCc1nccs1)C(=O)c1ccncc1F	-1.288%
CC(C)(C)OC(=O)NCC1CCNC1 (stereo not shown)	26.77%
CC1CCCN(CCCNC(=O)Cn2cnnn2)C1 (stereo not shown)	8.892%
CC(C)NC(=O)CN1c2cc(Cl)ccc2CS1(=O)=O	4.31%
N#Cc1cnc(Oc2ccc3c(c2)CCC3=O)cn1	-15.35%
Cc1cc(NC(=O)NC2CCS(=O)(=O)CC2)ccc1F	39.29%
Cc1cc(S(=O)(=O)NC2CCS(=O)(=O)C2)c(C)s1 (stereo not shown)	54.29%
CC(Cn1cccn1)C(=O)N(C)CCc1cnn(C)c1 (stereo not shown)	-13.48%
CC(C)c1ccc(CNCCNCCO)cc1	44.33%
CC1CCCCN1CCCNc1ccc2nnnn2n1 (stereo not shown)	-9.109%
COc1cccc(OC)c1O	15.1%
CN(Cc1cnn(C)c1)C(=O)C1CCNCC1	8.21%
CSCC[C@H](N)C(=O)OC(C)(C)C	10.31%
N#Cc1ccc(NCC(=O)Nc2ncccc2O)cc1	27.51%
Cc1n[nH]cc1CNc1cc2c(cc1F)NC(=O)CC2	12.44%
O=C1CCN(Cc2ccc(OC(F)F)c(Br)c2)CCN1	37.92%
CC(C)(CO)NC1CC1	3.606%
CCC[C@H]1CN(C(=O)CCCc2cn[nH]c2)C[C@@H]1N	3.053%
CSCC(CCO)Nc1nnnn1-c1ccc(C)cc1 (stereo not shown)	38.12%
O=C1CCC(C(=O)NCCc2ccc(F)cc2)N1 (stereo not shown)	18.25%

For reference, 6 entries once more:

compound,effect
Cc1cc(C)cc(C(=O)N2CCCC(O)C2)c1 (stereo not shown),23.27%
CCC[C@H]1CN(C(=O)CCCc2cn[nH]c2)C[C@@H]1N,3.053%
CC(C)N1CCC(NC(=O)c2ccoc2)CC1,18.1%
CCCn1cnnc1C(C)NC(=O)c1cnc(O)cn1 (stereo not shown),-12.68%
CCNCc1nc(-c2ccccc2)no1,60.38%
CN(C)C(=O)c1c[nH]nc1C1CCCNC1 (stereo not shown),-3.4%